According to article PMC3956856, “Interaction of Kinase-Interaction-Motif Protein Tyrosine Phosphatases with the Mitogen-Activated Protein Kinase ERK2” (PLoS ONE, 2014):
Results are given in words; binding and its absence hold for the method and conditions named. Some entries that bind do so weakly or less than the wild type.

Sequences of proteins named here, by UniProt entry; tags and fusion partners are left off.
UniProt P63086: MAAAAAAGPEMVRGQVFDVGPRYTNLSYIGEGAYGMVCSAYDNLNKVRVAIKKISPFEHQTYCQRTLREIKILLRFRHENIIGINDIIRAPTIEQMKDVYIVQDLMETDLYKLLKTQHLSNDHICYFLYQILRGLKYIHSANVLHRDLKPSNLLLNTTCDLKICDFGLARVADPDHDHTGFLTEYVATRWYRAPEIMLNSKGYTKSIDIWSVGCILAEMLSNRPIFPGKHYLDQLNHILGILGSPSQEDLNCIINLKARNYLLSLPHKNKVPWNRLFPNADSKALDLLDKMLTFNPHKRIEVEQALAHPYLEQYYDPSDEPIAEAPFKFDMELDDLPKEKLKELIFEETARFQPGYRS

Target: extracellular signal-regulated kinase 2 (ERK2), unphosphorylated (UniProt P63086)
Experiment: SAXS; unphosphorylated ERK2 incubated 1:1 with STEP 213-539 at room temperature for 30 min, complex purified by SEC (Superdex 75 26/60); 50 mM HEPES pH 6.8, 150 mM NaCl, 5 mM dithiothreitol; 0.7, 1.2 and 1.7 mg/ml; both purified

B1: STEP (residues 213-539, mouse) (domain or fragment, UniProt P54830 213-539, looked up)
chain: MGLQERRGSNVSLTLDMCTPGCNEEGFGYLVSPREESAHEYLLSASRVLRAEELHEKALDPFLLQAEFFEIPMNFVDPKEYDIPGLVRKNRYKTILPNPHSRVRLTSPDPEDPLSSYINANYIRGYSGEEKVYIATQGPIVSTVADFWRMVWQERTPIIVMITNIEEMNEKCTEYWPEEQVVHDGVEITVQKVIHTEDYRLRLISLRRGTEERSLKHYWFTSWPDQKTPDRAPPLLHLVREVEEAAQQEGPHCSPIIVHCSAGIGRTGCFIATSICCQQLRREGVVDILKTTCQLRQDRGGMIQTCEQYQFVHHAMSLYEKQLSLQS
notes: STEP (PTPN5, striatal enriched protein tyrosine phosphatase), mouse, residues 213-539 (KIM, KIS and catalytic domain); The results loosely call this construct 'full-length STEP'; the construct is residues 213-539; also called STEP_(213-539); PTPN5; source: final SEC
B1 was tested, and the binding was “binds”.
